Laboratory results: PubChem BioAssay AID1159584 (Peter MacCallum Cancer Centre, 2016)
Purpose: 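Knock-downs that harm CDH1-null cells more than parental MCF10A cells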 (primary screen). System: human MCF10A breast epithelial cells, parental and CDH1-null. Reagents: siRNA against human genes. Measured: 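Cell viability by CellTiter-Glo ATP luminescence, each line scaled to the mean of mock wells across plates, then CDH1-null over parental ratio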. Scale: CDH1-null / parental viability ratio: higher = CDH1-null cells survive relatively better than parental.
Here is an unselected part of about 18,000 deposited reagents. Further read-outs or replicates are left out here. Not stated in the record: the amount of reagent, the time to read-out.

target	CDH1-null / parental viability ratio
COL15A1 (GeneID 1306)	1.07
DAZL (GeneID 1618)	1.24
CABCOCO1 (GeneID 219621)	1.1
VWA5A (GeneID 4013)	1.2
ZNF335 (GeneID 63925)	0.95
PLEKHG6 (GeneID 55200)	0.76
RAD9B (GeneID 144715)	1.17
OR5M10 (GeneID 390167)	1.12
GARIN4 (GeneID 149647)	0.97
ATP8B2 (GeneID 57198)	0.94
ARPC1A (GeneID 10552)	1.21
ABRAXAS1 (GeneID 84142)	1.1
EFNA2 (GeneID 1943)	1.02
FAAP20 (GeneID 199990)	0.97
AGTPBP1 (GeneID 23287)	0.85
TEX12 (GeneID 56158)	1.06
FARS2 (GeneID 10667)	0.85
OR9G1 (GeneID 390174)	0.93
GSTK1 (GeneID 373156)	0.93
HIP1 (GeneID 3092)	1.05
AIRE (GeneID 326)	0.87
RBM18 (GeneID 92400)	0.94
GABRG2 (GeneID 2566)	1.31
KRTAP10-12 (GeneID 386685)	1.4
GINS1 (GeneID 9837)	0.78
CACYBP (GeneID 27101)	1.04
H2AB2 (GeneID 474381)	0.98
PCDHB13 (GeneID 56123)	1.21
ZNF628 (GeneID 89887)	1.44
CHD9 (GeneID 80205)	1.19
AURKA (GeneID 6790)	0.88
PAEP (GeneID 5047)	1.11
NF1 (GeneID 4763)	0.89
PRG2 (GeneID 5553)	1.06
SERPINA6 (GeneID 866)	0.83
KDF1 (GeneID 126695)	1.04
GATA4 (GeneID 2626)	1.35
H3C4 (GeneID 8351)	1.37
PPP3R1 (GeneID 5534)	1.16
BCAS4 (GeneID 55653)	0.76
KRTAP1-3 (GeneID 81850)	0.71
SPATA32 (GeneID 124783)	0.9
CD2BP2 (GeneID 10421)	1.13
DYNC2H1 (GeneID 79659)	0.85
MED20 (GeneID 9477)	1.23
RBM24 (GeneID 221662)	1
ITGB1 (GeneID 3688)	0.92
PNOC (GeneID 5368)	0.85
OXSM (GeneID 54995)	0.99
OR4C6 (GeneID 219432)	1.09
FAM216B (GeneID 144809)	0.95
CMTM3 (GeneID 123920)	0.85
KCTD4 (GeneID 386618)	1.19
LGI1 (GeneID 9211)	1.31
SLCO1B1 (GeneID 10599)	1.07
GPATCH8 (GeneID 23131)	1.05
LIMS1 (GeneID 3987)	0.57
TOR1B (GeneID 27348)	1
SGCE (GeneID 8910)	0.68
BMPER (GeneID 168667)	1.11
COP1 (GeneID 64326)	1.02
CTIF (GeneID 9811)	1.24
ATP10D (GeneID 57205)	0.77
SLC20A1 (GeneID 6574)	1.15
AQP10 (GeneID 89872)	1.04
TOMM40L (GeneID 84134)	1.11
ATP5PO (GeneID 539)	0.9
RBM19 (GeneID 9904)	1.03

A few values from above:
For “CDH1-null / parental viability ratio”, CABCOCO1 (GeneID 219621) is entered as 1.1
Entry for KRTAP10-12 (GeneID 386685) under “CDH1-null / parental viability ratio”: 1.4
Result for SLCO1B1 (GeneID 10599) in “CDH1-null / parental viability ratio”: 1.07
Entry for LGI1 (GeneID 9211) under “CDH1-null / parental viability ratio”: 1.31
CMTM3 (GeneID 123920), CDH1-null / parental viability ratio = 0.85
For “CDH1-null / parental viability ratio”, CTIF (GeneID 9811) has 1.24
